Assay [1] has as its target purified, soluble Fas ligand (Alexis Biochemicals) (UniProt P48023). Nature of the assay: co-immunoprecipitation with protein A-sepharose, anti-Fas ligand immunoblot.
Assay [2] addresses full-length LIGHT expressed from pRK5 on transiently transfected 293 cells (UniProt O43557). Nature of the assay: FACS, biotinylated Fc-tagged DcR3 on transiently transfected 293 cells, streptavidin-phycoerythrin (data not shown). A general note: Flow cytometry measures light scatter and fluorescence of single cells or particles in a stream.

Amino acid sequences for entries named in this document (tags omitted). Residues count along the entry.
UniProt P48023, residues 103-281: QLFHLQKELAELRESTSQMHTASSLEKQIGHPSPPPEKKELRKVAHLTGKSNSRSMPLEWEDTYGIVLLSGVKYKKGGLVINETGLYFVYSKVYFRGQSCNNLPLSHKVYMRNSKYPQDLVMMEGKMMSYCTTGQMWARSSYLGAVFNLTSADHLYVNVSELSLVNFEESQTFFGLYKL
UniProt O43557: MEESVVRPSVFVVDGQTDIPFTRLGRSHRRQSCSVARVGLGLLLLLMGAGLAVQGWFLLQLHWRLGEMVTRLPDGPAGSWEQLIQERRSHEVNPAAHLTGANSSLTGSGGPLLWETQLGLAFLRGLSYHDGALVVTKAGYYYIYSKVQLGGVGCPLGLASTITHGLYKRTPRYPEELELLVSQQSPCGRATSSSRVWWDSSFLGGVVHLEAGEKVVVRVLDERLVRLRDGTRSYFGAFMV

Results are given in words; binding and its absence hold for the method and conditions named. For some assays here: Binding seen in cells or lysates may run through a third protein. Some entries that bind do so weakly or less than the wild type. Where a sequence is shown, tags or fusion partners need not be part of it.

B1: recombinant Fc-tagged DcR3 (expressed as described in Example 7, purified by Protein A chromatography) (Fc fusion, not shown: a dimerising Fc or GST)
chain: VAETPTYPWRDAETGERLVCAQCPPGTFVQRPCRRDSPTTCGPCPPRHYTQFWNYLERCRYCNVLCGEREEEARACHATHNRACRCRTGFFAHAGFCLEHASCPPGAGVIAPGTPSQNTQCQPCPPGTFSASSSSSEQCQPHRNCTALGLALNVPGSSSHDTLCTSCTGFPLSTRVPGAEECERAVIDFVAFQDISIKRLQRLLQALEAPEGWGPTPRAGRAALQLKLRRRLTELLGAQDGALLVRLLQALRVARMPGLERSVRERFLPVH
modifications: biotinylated in the FACS assay (sites not given)
For B1, the binding entry in assay [1] and in assay [2] was “binds” in each case.
